This is an account of results in patent US12448399B2, “Cereblon-based KRAS degrading PROTACs and uses related thereto” (Arvinas Operations, Inc., priority 2023, dated 2025).

Protein sequences, listed by entry. Tags and fused reporters are not part of them. Residues count along the entry.
UniProt P01116, 1-188 isoform 2 G12D: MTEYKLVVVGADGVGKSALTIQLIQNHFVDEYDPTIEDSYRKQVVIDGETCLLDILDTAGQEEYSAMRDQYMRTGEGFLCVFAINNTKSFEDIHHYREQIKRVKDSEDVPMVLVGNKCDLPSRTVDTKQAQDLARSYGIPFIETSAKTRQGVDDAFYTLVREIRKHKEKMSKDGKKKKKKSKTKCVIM

The experiment has as its target KRas-G12D (Homo sapiens, UniProt P01116, G12D). Nature of the experiment: HiBiT Degradation Assay (G12D), AsPC-1 HiBiT-KRasG12D cells, 24 hr. The following applies: for KRas Degradation Dmax: AsPC-1 cells, maximum degradation observed. The method, then:
AsPC-1 (CRL-1682) cells were purchased from ATCC and are homozygous for the G12D mutation in KRas. AsPC-1 cells were cultured in GIBCO RPMI-1640 (ThermoFisher Scientific, catalog #61870-036, with Glutamax, no HEPES, no Na Pyruvate) supplemented with 10% FBS (ThermoFisher Scientific, catalog #2060357) and 1× Penicillin-Streptomycin (ThermoFisher Scientific, catalog #15140122, 10000 U/ml, 100×). For degradation assays, 384 well plates were used. Alamar blue was purchased from ThermoFisher Scientific (A50101) and used according to manufacturer instructions. The Nano-Glo® HiBiT Lytic Detection System and Nano-Glo® HiBiT Blotting System were purchased from Promega (#N3050 and #N2410) and used according to manufacturer instructions.
To create the AsPC-1 HiBiT-KRasG12D cell line, CRISPR-Cas9 was used to insert the HiBiT tag onto the N-terminus of one or more of the endogenous KRas alleles. See Schwinn, M. K. et al. (2018) CRISPR-mediated tagging of endogenous proteins with a luminescent peptide, ACS Chem. Biol. 13(2), 467-474. After knock-in of the tag, individual clones were isolated by single cell dilution and screened for HiBiT insertion by PCR. A clone was identified that contained the desired HiBiT-KRasG12D sequence at one allele while the remaining two KRasG12D alleles were untagged. This clone was used in further studies.
AsPC-1 HiBiT-KRasG12D cells were plated at 9000 or 15,000 cells/well in a 384 well plate (Corning #3770). Compounds of the present disclosure and positive controls were diluted in the appropriate cell media and applied to the plated cells resulting in a final concentration titration of 10 μM to […] in 0.5% DMSO. Gambogic acid was used as a positive control for cytotoxicity and titrated from 10 μM to 78 nM. All assays were performed in triplicate. Cells were treated with compounds for 24 hr at 37° C. in an incubator containing 5% CO2. Following treatment, alamar blue was used to determine if any compounds led to a loss in cell viability after 24 hr. The 10× alamar blue reagent was added to a final concentration of 1× as recommended by the manufacturer and cells were returned to the incubator for 4 hr. Plates were then allowed to equilibrate to RT and fluorescence was measured using a Perkin-Elmer EnVision. After completion of the fluorescence read, the liquid from each well was removed and the cells were washed with PBS. The Nano-Glo® HiBiT detection reagent was prepared according to the manufacturer's instructions and added to each well after the PBS wash was removed. Following incubation at room temperature for 45 min, the luminescence was read using the ultra-sensitive luminescence aperture on the Envision instrument.
Fluorescence values from the alamar blue treatment were normalized to the DMSO-only control for each compound titration. HiBiT luminescence was normalized to the DMSO-only control and the fractional HiBiT signal was plotted versus the log of the PROTAC concentration and fit to a 4-parameter dose-response model to obtain the concentration of the compound that leads to half maximal degradation (DC50) as well as the maximum degradation observed (Dmax, conventionally expressed as a percentage of control).
A general note: With HiBiT, luminescence reflects the tagged protein that the partner subunit can reach.

The mark [1] stands for this setting: read-out: KRas Degradation DC50, AsPC-1 cells.

Broadly, the DC50 is the concentration at which degradation of the target reaches its halfway point.

Read-outs that look alike come from different tables or passages of the source. The match of structure and compound is tentative.

In the case of `C#Cc1c(F)ccc2cc(O)cc(-c3ncc4c(N5CC6CCC(C5)N6)nc(OCCCN5CCC(CC6CCN(CC7CCN(c8ccc9c(c8)n(C)c(=O)n9C8CCC(=O)NC8=O)CC7)CC6)CC5)nc4c3F)c12` (centres unmarked), the “KRas Degradation Dmax” value (tested form: formic acid salt) is “A (A represents a Dmax value >70%)”. In addition, the DC50 (read-out: KRas Degradation DC50, AsPC-1 cells, tested form: formic acid salt) is below 5.1 µM.

With `CCc1cccc2cc(O)cc(-c3ncc4c(N5CC6CCC(C5)N6)nc(OCCN5CCC(c6ccc7c(c6)C(=O)N(C6CCC(=O)NC6=O)C7)CC5)nc4c3F)c12` (centres unmarked), the DC50 under setting [1] is 0.25 to 1 µM.

Take `C#Cc1c(F)ccc2cc(O)cc(-c3ncc4c(N5CC6CCC(C5)N6)nc(OCCN5CCC(CC6CCN(CC7CN(c8ccc9c(c8)CN(C8CCC(=O)NC8=O)C9=O)C7)CC6)CC5)nc4c3F)c12` (centres unmarked): the “KRas Degradation Dmax” value is reported as “A (A represents a Dmax value >70%)”. In addition, the DC50 under setting [1] was below 5.1 µM.
